# Some entries share one result that the patent states for a list of compounds. At least one compound was matched to its structure with a doubt left.
# Tested on: Human Th2 cells
# Assay: Apoptosis challenge test (Annexin V-PE/PI flow cytometry)
# Format: cell-based
# Conditions: 100 nM PGD2, absence of IL-2, 16 hrs; read-out: IC50 to the rescuing function of PGD2
# Description: Human Th2 cells were treated with 50 U/ml IL-2 or various concentrations of PGD2 in the absence of IL-2 for 16 hrs. The cells were stained with Annexin V-PE/PI and then analysed by FACSArray flow cytometer.
# Human Th2 cells were treated in the absence of IL-2 with a medium containing 100 nM PGD2 and various concentrations of CRTH2 antagonistic compounds (Compounds 1, 2, 3, 4 and 5) for 16 hrs. The cells were stained with Annexin V-PE/PI and then analysed by FACSArray flow cytometer.
smiles,measurement,value
"Cc1c(Cc2cccnc2S(=O)(=O)c2ccc(F)cc2)c2cc(F)ccc2n1CC(=O)O [Compound 5, [5-Fluoro-3-({2-[(4-fluorobenzene)sulfonyl]pyridin-3-yl}methyl)-2-methylindol-1-yl]-acetic acid]",IC50,< 100 nM
